Measured values from publication PMC10564889.
No constants are given. Whether binding was seen depends on the method and setting. In cells and extracts the contact can be indirect. Some entries that bind do so weakly or less than the wild type. Values belong to the binder of their own block, whether it stands above or below them.

Assays:
[1] = target: T1, CREB5 (cAMP responsive element binding protein 5) (human (endogenous in LoVo and SW480)) (UniProt Q02930); test: co-IP; whole cell lysates of LoVo and SW480 cells; supernatant incubated with anti-CREB5 or anti-ATF2 antibody or IgG control overnight at 4 °C, protein A/G agarose beads 2 h at 4 °C, western blot of the immunoprecipitates; endogenous proteins
T1 sequence: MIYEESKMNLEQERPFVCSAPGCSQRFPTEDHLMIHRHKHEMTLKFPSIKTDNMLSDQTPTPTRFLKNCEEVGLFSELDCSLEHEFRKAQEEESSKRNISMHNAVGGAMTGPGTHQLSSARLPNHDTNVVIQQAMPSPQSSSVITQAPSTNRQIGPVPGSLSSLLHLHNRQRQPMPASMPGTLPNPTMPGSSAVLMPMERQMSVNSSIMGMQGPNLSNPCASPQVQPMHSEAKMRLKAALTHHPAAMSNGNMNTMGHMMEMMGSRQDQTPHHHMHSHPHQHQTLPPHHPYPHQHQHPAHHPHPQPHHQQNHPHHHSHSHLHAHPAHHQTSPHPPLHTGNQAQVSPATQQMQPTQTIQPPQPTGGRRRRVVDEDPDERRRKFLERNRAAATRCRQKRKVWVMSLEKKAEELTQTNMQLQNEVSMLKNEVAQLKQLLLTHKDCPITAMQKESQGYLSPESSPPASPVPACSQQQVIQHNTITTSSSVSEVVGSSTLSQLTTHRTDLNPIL

[2] = target: T2, ATF2 (human (endogenous in LoVo and SW480)) (UniProt P15336); test: as above
T2 sequence: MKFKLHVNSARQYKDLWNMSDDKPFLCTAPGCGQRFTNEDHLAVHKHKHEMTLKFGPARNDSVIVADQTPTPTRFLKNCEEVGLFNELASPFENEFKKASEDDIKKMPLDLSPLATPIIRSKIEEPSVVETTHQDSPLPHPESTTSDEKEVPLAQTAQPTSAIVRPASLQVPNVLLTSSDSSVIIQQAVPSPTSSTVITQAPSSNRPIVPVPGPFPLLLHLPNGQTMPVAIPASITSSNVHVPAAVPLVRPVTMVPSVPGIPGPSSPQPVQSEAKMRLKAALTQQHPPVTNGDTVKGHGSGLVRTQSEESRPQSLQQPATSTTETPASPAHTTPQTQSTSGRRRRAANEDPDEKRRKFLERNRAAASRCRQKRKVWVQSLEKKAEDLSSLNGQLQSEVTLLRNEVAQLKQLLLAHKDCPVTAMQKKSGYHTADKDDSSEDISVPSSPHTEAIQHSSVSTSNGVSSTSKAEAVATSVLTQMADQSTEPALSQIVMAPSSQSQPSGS

binding [1]: binds
B1: ATF2 (protein, UniProt P15336 1-505)
chain: T2 sequence

binding [2]: binds
B2: CREB5 (cAMP responsive element binding protein 5) (protein, UniProt Q02930 1-508)
chain: T1 sequence
